Experimental data from patent publication US10532082B2, “SOCS1-derived peptide for use in chronic complications of diabetes” (Fundació Hospital Universitari Vall d'Hebron-Institut de …, priority 2014, dated 2020).

Test system: diabetic mice (db/db)
Assay: Weight and glycemia in the model of diabetic retinopathy
Type: in vivo
Conditions: eye drops 15 days

miS1: SEQ ID NO 1 DTHFRTFRSHSDYRRI, kinase inhibitory region of murine SOCS1, bound to lysine-palmitate at the N-terminal end, tyrosine phosphorylated (N-terminal lysine-palmitate; tyrosine phosphorylated; A synthetic “kinase inhibitory region” of murine SOCS1 protien)
Blood glucose level throughout the study: did not affect | body weight throughout the study: did not affect
